Binding data for 1 molecule are collected here from paper PMC6165067.

These are yes or no findings as the source states them, for the method shown.

In this assay the target is human queuine tRNA-ribosyltransferase subunit 1 (QTRT1), catalytic subunit of tRNA guanine transglycosylase (human) (UniProt Q9BXR0). The experiment in a line: crystal structure; two QTRT1 molecules in the asymmetric unit, space group C2; crystals grown from the purified heterodimer in 100 mM Tris pH 7.8, 200 mM KBr, 200 mM KSCN, 3% PGA-LM, 5% PEG 4000, 20 °C; both purified.

B1: human queuine tRNA-ribosyltransferase subunit 1 (QTRT1), catalytic subunit of tRNA guanine transglycosylase (enzyme, UniProt Q9BXR0 1-403)
chain: MAGAATQASLESAPRIMRLVAECSRSRARAGELWLPHGTVATPVFMPVGTQATMKGITTEQLDALGCRICLGNTYHLGLRPGPELIQKANGLHGFMNWPHNLLTDSGGFQMVSLVSLSEVTEEGVRFRSPYDGNETLLSPEKSVQIQNALGSDIIMQLDDVVSSTVTGPRVEEAMYRSIRWLDRCIAAHQRPDKQNLFAIIQGGLDADLRATCLEEMTKRDVPGFAIGGLSGGESKSQFWRMVALSTSRLPKDKPRYLMGVGYATDLVVCVALGCDMFDCVFPTRTARFGSALVPTGNLQLRKKVFEKDFGPIDPECTCPTCQKHSRAFLHALLHSDNTAALHHLTVHNIAYQLQLMSAVRTSIVEKRFPDFVRDFMGAMYGDPTLCPTWATDALASVGITLG
Take B1: the binding result is reported as “no binding”.
